Test results taken from patent publication US20100115639A1 (PIERRE FABRE MEDICAMENT, published 2010).
Positions count from the first letter of the chain named. These are yes or no findings as the source states them, for the method shown. Some results given as binding are weak or reduced against the parent protein; the word gives no strength. One block for each binder: values may come before it.

Chains of the proteins cited; added tags and fusions are not shown. Lines headed by an entry give the natural chain unless they say otherwise; changes in a name come on top. Residues count along the entry.
UniProt P08581: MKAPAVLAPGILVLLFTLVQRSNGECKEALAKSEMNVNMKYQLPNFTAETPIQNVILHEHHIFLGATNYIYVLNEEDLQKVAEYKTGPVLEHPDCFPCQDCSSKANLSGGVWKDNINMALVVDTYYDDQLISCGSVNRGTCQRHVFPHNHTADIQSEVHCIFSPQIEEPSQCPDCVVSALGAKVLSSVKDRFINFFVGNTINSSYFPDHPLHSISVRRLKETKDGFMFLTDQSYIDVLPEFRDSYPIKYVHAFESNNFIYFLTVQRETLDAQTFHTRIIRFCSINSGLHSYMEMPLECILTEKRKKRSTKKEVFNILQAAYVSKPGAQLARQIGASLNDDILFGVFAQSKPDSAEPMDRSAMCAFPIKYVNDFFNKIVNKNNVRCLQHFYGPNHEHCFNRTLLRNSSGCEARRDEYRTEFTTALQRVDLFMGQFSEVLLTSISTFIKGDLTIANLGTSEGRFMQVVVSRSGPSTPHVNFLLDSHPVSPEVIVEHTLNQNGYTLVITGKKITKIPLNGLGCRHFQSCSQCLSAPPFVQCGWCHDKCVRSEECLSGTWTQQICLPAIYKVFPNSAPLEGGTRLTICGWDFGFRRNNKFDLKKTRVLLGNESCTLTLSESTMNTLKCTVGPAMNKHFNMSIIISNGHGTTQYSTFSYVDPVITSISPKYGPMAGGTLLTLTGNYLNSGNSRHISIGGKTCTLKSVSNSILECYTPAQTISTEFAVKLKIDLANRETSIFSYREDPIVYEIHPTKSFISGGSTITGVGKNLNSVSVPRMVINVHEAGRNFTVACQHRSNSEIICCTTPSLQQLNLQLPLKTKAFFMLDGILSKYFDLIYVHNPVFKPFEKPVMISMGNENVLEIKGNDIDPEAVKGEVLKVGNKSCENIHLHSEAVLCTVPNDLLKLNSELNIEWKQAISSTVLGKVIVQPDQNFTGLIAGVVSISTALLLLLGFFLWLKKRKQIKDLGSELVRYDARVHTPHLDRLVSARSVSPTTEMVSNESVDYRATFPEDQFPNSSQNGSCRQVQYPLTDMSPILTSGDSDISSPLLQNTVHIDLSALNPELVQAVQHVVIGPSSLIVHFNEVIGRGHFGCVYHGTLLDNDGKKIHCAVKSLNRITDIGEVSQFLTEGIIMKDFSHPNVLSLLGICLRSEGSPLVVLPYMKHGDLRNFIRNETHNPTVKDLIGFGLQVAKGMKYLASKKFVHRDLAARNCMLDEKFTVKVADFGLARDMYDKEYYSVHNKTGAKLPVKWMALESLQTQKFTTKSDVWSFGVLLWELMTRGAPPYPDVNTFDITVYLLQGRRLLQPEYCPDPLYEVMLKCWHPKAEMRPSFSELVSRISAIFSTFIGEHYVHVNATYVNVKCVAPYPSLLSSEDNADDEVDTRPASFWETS
monomeric fragment of the recombinant c-Met protein (obtained by cleavage of the recombinant c-Met-Fc protein): residues 25-932 of P08581

Legend:
[1] = molecular target: recombinant Fc-cMet (Example 27 ELISA assays) (UniProt P08581); assay: HGF-cMet competition ELISA, residual Fc-cMet binding to coated HGF (FIG. 54)
[2] = molecular target: recombinant c-Met-Extra-Cellular Domain (ECD) fused to a human IgG1 Fc domain (R&D Systems, 358MT) (human) (UniProt P08581); assay: ELISA, human dimeric c-Met protein coated at 0.7 µg/ml, hybridoma supernatants
[3] = molecular target: recombinant c-Met-Extra-Cellular Domain (ECD) fused to a human IgG1 Fc domain (R&D Systems, 358MT) (human) (UniProt P08581); assay: BIAcore X, around 270 RU of captured c-Met-Fc, 2 minute injections at 10 µg/ml
[4] = molecular target: T1, recombinant SEMA domain of c-Met (UniProt P08581 27-515, limits assumed); assay: ELISA, SEMA domain coated at 3 µg/ml
T1 construct: domain: SEMA; also called SEMA protein

[5] = molecular target: recombinant Fc-cMet (Example 27 ELISA assays) (UniProt P08581); assay: direct binding ELISA on plastic-coated Fc-cMet, anti-murine Fc detection (FIG. 53)
[6] = molecular target: monomeric fragment of the recombinant c-Met protein (obtained by cleavage of the recombinant c-Met-Fc protein) (human) (UniProt P08581); assay: ELISA, monomeric c-Met coated at 5 µg/ml, hybridoma supernatants
[7] = molecular target: recombinant Fc-cMet (Example 27 ELISA assays) (UniProt P08581); assay: direct binding ELISA on plastic-coated Fc-cMet, anti-human Fc detection (FIG. 64)
[8] = molecular target: recombinant Fc-cMet (Example 27 ELISA assays) (UniProt P08581); assay: direct binding ELISA on plastic-coated Fc-cMet, anti-human Fc detection (FIG. 63)
[9] = molecular target: recombinant Fc-cMet (Example 27 ELISA assays) (UniProt P08581); assay: direct binding ELISA on plastic-coated Fc-cMet, anti-human Fc detection (FIG. 61)
[10] = molecular target: recombinant c-Met-Extra-Cellular Domain (ECD) fused to a human IgG1 Fc domain (R&D Systems, 358MT) (human) (UniProt P08581); assay: BIAcore X, Fab as analyte on c-Met-Fc-His captured by anti-His antibody, 25°C
[11] = molecular target: recombinant Fc-cMet (Example 27 ELISA assays) (UniProt P08581); assay: HGF-cMet competition ELISA (FIG. 71)
[12] = molecular target: recombinant Fc-cMet (Example 27 ELISA assays) (UniProt P08581); assay: HGF-cMet competition ELISA (FIG. 74)
[13] = molecular target: recombinant Fc-cMet (Example 27 ELISA assays) (UniProt P08581); assay: HGF-cMet competition ELISA (FIG. 58)
[14] = molecular target: recombinant Fc-cMet (Example 27 ELISA assays) (UniProt P08581); assay: direct binding ELISA on plastic-coated Fc-cMet, anti-human Fc detection (FIG. 56)
[15] = molecular target: recombinant Fc-cMet (Example 27 ELISA assays) (UniProt P08581); assay: direct binding ELISA on plastic-coated Fc-cMet, anti-human Fc detection (FIG. 73)
[16] = molecular target: recombinant Fc-cMet (Example 27 ELISA assays) (UniProt P08581); assay: direct binding ELISA on plastic-coated Fc-cMet, anti-human Fc detection (FIG. 69)
[17] = molecular target: recombinant Fc-cMet (Example 27 ELISA assays) (UniProt P08581); assay: direct binding ELISA on plastic-coated Fc-cMet, anti-human Fc detection (FIG. 70)

B1: 11E1 murine monoclonal antibody (antibody, V domains shown)
VH: QVQLQQSGAELAKPGASVKMSCKASGYTFTSYWMNWVKQRPGQGLEWIGYINPTTGSTDYNQKLKDKATLTADKSSNTAYMQLSSLTSEDSAVYYCAIGGYGSWFAYWGQGTLVTVSA
VL: QIVLTQSPAIMSASPGEKVTLTCSASSSVSSTYLYWYQQKPGSSPKLWIYTTSILASGVPARFSGSGSGTSYSLTISSMETEDAASYFCHQWSSYPFTFGSGTKLDIK
notes: Used as hybridoma supernatant or purified Mab; also called MAb 11E1; CNCM I-3724
binding [1]: binds
binding [2]: binds
binding [3]: binds
binding [4]: binds
binding [5]: binds
binding [6]: binds

binding [7]: binds
binding [8]: binds
binding [9]: binds
B2: chimeric 11E1 recombinant antibody (antibody, IgG1, V domains shown)
VH: B1 VH
VL: B1 VL

B3: Fab fragment of mAb 11E1 (papain cleavage) (Fab, V domains shown)
VH: B1 VH
VL: B1 VL
notes: also called 11E1 Fab
binding [10]: binds

B4: 224G11 murine monoclonal antibody (antibody, mouse IgG1, V domains shown)
VH: EVQLQQSGPELVKPGASVKISCKTSGYIFTAYTMHWVRQSLGESLDWIGGIKPNNGLANYNQKFKGKATLTVDKSSSTAYMDLRSLTSEDSAVYYCARSEITTEFDYWGQGTALTVSS
VL: DIVLTQSPASLAVSLGQRATISCRASESVDSYANSFMHWYQQKPGQPPKLLIYRASNLESGIPARFSGSGSRTDFTLTINPVEADDVATYYCQQSKEDPLTFGSGTKLEMK
notes: also called CNCM I-3731
binding [1]: binds
binding [2]: binds
binding [11]: binds
binding [12]: binds
binding [5]: binds
binding [6]: binds

B5: 227H1 murine monoclonal antibody (antibody, mouse IgG1, V domains shown)
VH: EVQLQQSGPELVKPGASMKISCKASGYSFTDYTLNWVKQSHGKTLEWIGLINPYNGGTTYNQKFKGKATLTVDKSSSTAYMELLSLTSEDSAVYYCAREEITKDFDFWGQGTTLTVSS
VL: B4 VL with D1G, A25V, V29I, S31T, A33G, M37I, V87S, K96N, L100F
notes: also called CNCM I-3732
binding [2]: binds
binding [13]: binds
binding [5]: binds
binding [6]: binds

binding [13]: binds
binding [14]: binds
B6: chimeric 227H1 recombinant antibody (antibody, V domains shown)
VH: B5 VH
VL: B4 VL with D1G, A25V, V29I, S31T, A33G, M37I, V87S, K96N, L100F

B7: Fab fragment of mAb 224G11 (papain cleavage) (Fab, V domains shown)
VH: B4 VH
VL: B4 VL
notes: also called 224G11 Fab
binding [10]: binds

binding [15]: binds
binding [11]: binds
binding [12]: binds
binding [16]: binds
binding [17]: binds
B8: chimeric 224G11 recombinant antibody (antibody, V domains shown)
VH: B4 VH
VL: B4 VL

B9: 223C4 murine monoclonal antibody (antibody, mouse IgG1, V domains shown)
VH: EVLLQQSGPELVKPGASVKIPCKASGYTFTDYNMDWVKQSHGMSLEWIGDINPNNGGTIFNQKFKGKATLTVDKSSSTAYMELRSLTSEDTAVYYCARGRYVGYYYAMDYWGQGTSVTVSS
VL: DIQMTQSPASLSVSVGETVTITCRASENIYSNLAWYQQKQGKSPQLLVYAATNLVDGVPSRFSGSGSGTQYSLKINSLQSEDFGSYYCQHFWGPPYTFGGGTKLEIK
notes: also called CNCM I-3786
binding [2]: binds
binding [6]: binds
